Measured values taken from patent US7164008B2, “Isolated complexes of endotoxin and MD-2” (priority 2003, dated 2007).
Some results were stated once for a whole list of compounds, not compound by compound.

Tested on: human airway epithelia
Assay: Endotoxin responsiveness of primary human airway epithelia (HBD-2 mRNA real time PCR, NF-κB-luciferase)
Assay type: cell-based
Conditions: measured by NF-κB-luciferase activity and HBD-2 mRNA expression
Method: FIG. 6 depicts endotoxin responsiveness of well-differentiated primary cultures of human airway epithelia. Polarized epithelia were treated with NTHi LOS (100 ng/ml), sCD14 (100 ng/ml) and LBP (250 ng/ml) by apical application in a 50 μl volume. Twenty-four hours later, epithelia were harvested and analyzed for HBD-2 mRNA expression by real time PCR. As depicted in FIG. 6A, apical stimulation of airway epithelia with NTHi LOS induced little change in HBD-2 MRNA expression (2 epithelia/trial, n=3 different donors, * indicates p<0.05). In contrast, IL-1β markedly induces HBD-2 mRNA. FIG. 6B depicts the polarity of epithelial responses to IL-1β and NTHi LOS. […]
FIG. 9 depicts the effects of MD-2 complementation on endotoxin responsiveness in human airway epithelia. […] Fold increase in HBD-2 mRNA expression were quantified by real time PCR. […] NF-κB-luciferase activity was measured 24 hr following endotoxin treatment (n=5 epithelia/condition, * indicates p<0.05). […] 24 hr after endotoxin treatment, HBD-2 expression was quantified by real time PCR. […]
Well differentiated human airway epithelia were treated with N. meningitidis LOS-sCD14 (5 ng LOS/ml), with or without the addition of cell culture supernatants containing rMD-2. […] HBD-2 expression was quantified by real time PCR. […]
Real-time PCR was employed to detect human β-defensin-2 and MD-2 and to quantify changes in expression. […]

B1: wt MD-2: soluble polyhistidine-tagged recombinant wild-type MD-2 in conditioned insect cell culture medium (protein)
chain: QKQYWVCNSSDASISYTYCDKMQYPISINVNPCIELKRSKGLLHIFYIPRRDLKQLYFNLYITVNTMNLPKRKEVICRGSDDDYSFCRALKGETVNTTISFSFKGIKFSKGKYKCVVEAISGSPEEMLFCLEFVILHQPNSNHHHHHH
increase of responses of airway epithelia to endotoxin+LBP and sCD14: > 100 fold
